{"source": "PubChem BioAssay AID1508588, Peter MacCallum Cancer Centre | 2020", "aim": "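Genome-wide search for knock-downs that heighten vemurafenib action in melanoma cells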 (primary screen)", "cell system": "human WM266.4 melanoma cells (BRAF V600 mutant)", "reagents": "siRNA pool against human genes, 40 nM", "duration": "96 h from transfection to read-out", "conditions": "vemurafenib 300 nM (about IC25), added 48 h after transfection, for 48 h; comparison arm got DMSO vehicle only", "measured": "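Ratios to non-targeting siRNA for cell gain, counted as DAPI nuclei after minus before drug and averaged over two replicates, and for absorbance-read medium lactate per cell; both binned into fold-change classes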", "direction": "cell gain with vemurafenib: higher = more cell gain than with non-targeting siRNA; lactate per cell with vemurafenib: higher = more lactate made per cell", "hit rule": "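a knock-down counts as enhancing when its fold-change classes with vehicle and with vemurafenib, taken together, show a stronger drug effect on cell gain or lactate per cell; exact class pairs not stated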", "calls": "active = enhances vemurafenib effect; inactive = no enhancement seen", "note": "This is a random part of about 18,000 reagents. Over the whole deposit, 790 (4.4%) got an active call. 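Calls rest on a combination of fold-change classes in drug and vehicle arms, not all shown here.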 Unmarked entries are inactive."}
{"Gene": "SLC35E2A", "cell gain with vemurafenib": -0.03, "lactate per cell with vemurafenib": 4.36}
{"Gene": "DEDD2 (death effector domain containing 2)", "cell gain with vemurafenib": 0.88, "lactate per cell with vemurafenib": 1.03}
{"Gene": "NME5 (NME/NM23 family member 5)", "cell gain with vemurafenib": 0.65, "lactate per cell with vemurafenib": 0.5}
{"Gene": "TMEM45B (transmembrane protein 45B)", "cell gain with vemurafenib": 0.44, "lactate per cell with vemurafenib": 0.8}
{"Gene": "SBNO2 (strawberry notch homolog 2)", "cell gain with vemurafenib": 0.72, "lactate per cell with vemurafenib": 0.59}
{"Gene": "PLIN5 (perilipin 5)", "cell gain with vemurafenib": 0.31, "lactate per cell with vemurafenib": 1.12}
{"Gene": "GRN (granulin precursor)", "cell gain with vemurafenib": 0.76, "lactate per cell with vemurafenib": 0.94}
{"Gene": "NPHS2 (NPHS2 stomatin family member, podocin)", "cell gain with vemurafenib": 0.69, "lactate per cell with vemurafenib": 0.52}
{"Gene": "PLSCR1 (phospholipid scramblase 1)", "cell gain with vemurafenib": 0.67, "lactate per cell with vemurafenib": 1.18}
{"Gene": "SYNJ2BP (synaptojanin 2 binding protein)", "cell gain with vemurafenib": 0.61, "lactate per cell with vemurafenib": 0.58}
{"Gene": "SACK1H (scaffolding CK1 anchoring protein H)", "cell gain with vemurafenib": 0.52, "lactate per cell with vemurafenib": 1.8}
{"Gene": "SLC14A1", "cell gain with vemurafenib": "0.76 (active)", "lactate per cell with vemurafenib": 0.7}
{"Gene": "DNASE2B (deoxyribonuclease 2 beta)", "cell gain with vemurafenib": 0.8, "lactate per cell with vemurafenib": 0.31}
{"Gene": "COX7B2 (cytochrome c oxidase subunit 7B2)", "cell gain with vemurafenib": 0.56, "lactate per cell with vemurafenib": 0.56}
{"Gene": "NCAPD2 (non-SMC condensin I complex subunit D2)", "cell gain with vemurafenib": "0.75 (active)", "lactate per cell with vemurafenib": 0.66}
{"Gene": "TACC1 (transforming acidic coiled-coil containing protein 1)", "cell gain with vemurafenib": 1.08, "lactate per cell with vemurafenib": 1.1}
{"Gene": "NAF1 (nuclear assembly factor 1 ribonucleoprotein)", "cell gain with vemurafenib": 0.96, "lactate per cell with vemurafenib": 0.52}
{"Gene": "CATSPER4 (cation channel sperm associated 4)", "cell gain with vemurafenib": 0.12, "lactate per cell with vemurafenib": 1.2}
{"Gene": "LINC02908 (long independently transcribed non-coding RNA 2908)", "cell gain with vemurafenib": 0.57, "lactate per cell with vemurafenib": 0.78}
{"Gene": "FYTTD1 (forty-two-three domain containing 1)", "cell gain with vemurafenib": 1, "lactate per cell with vemurafenib": 0.68}
{"Gene": "TEX26 (testis expressed 26)", "cell gain with vemurafenib": 0.59, "lactate per cell with vemurafenib": 0.9}
{"Gene": "ZNF275 (zinc finger protein 275)", "cell gain with vemurafenib": 0.93, "lactate per cell with vemurafenib": 0.52}
{"Gene": "ZZZ3 (zinc finger ZZ-type containing 3)", "cell gain with vemurafenib": 0.47, "lactate per cell with vemurafenib": -0.06}
{"Gene": "CADM3 (cell adhesion molecule 3)", "cell gain with vemurafenib": 1.06, "lactate per cell with vemurafenib": 0.53}
{"Gene": "LCE5A (late cornified envelope 5A)", "cell gain with vemurafenib": 0.18, "lactate per cell with vemurafenib": 0.77}
{"Gene": "MGAT1", "cell gain with vemurafenib": 0.77, "lactate per cell with vemurafenib": 1.25}
{"Gene": "KCNJ11 (potassium inwardly rectifying channel subfamily J member 11)", "cell gain with vemurafenib": 0.62, "lactate per cell with vemurafenib": 0.98}
{"Gene": "RAD1 (RAD1 checkpoint DNA exonuclease)", "cell gain with vemurafenib": 0.68, "lactate per cell with vemurafenib": 0.46}
{"Gene": "ZNF232 (zinc finger protein 232)", "cell gain with vemurafenib": 0.72, "lactate per cell with vemurafenib": 0.36}
{"Gene": "PHAF1 (phagophore assembly factor 1)", "cell gain with vemurafenib": 0.73, "lactate per cell with vemurafenib": 0.43}
{"Gene": "WARS2 (tryptophanyl tRNA synthetase 2, mitochondrial)", "cell gain with vemurafenib": 0.72, "lactate per cell with vemurafenib": 0.95}
{"Gene": "IL2RA (interleukin 2 receptor subunit alpha)", "cell gain with vemurafenib": 0.55, "lactate per cell with vemurafenib": 0.45}
{"Gene": "TXN (thioredoxin)", "cell gain with vemurafenib": 0.44, "lactate per cell with vemurafenib": 1.9}
{"Gene": "RFPL2 (ret finger protein like 2)", "cell gain with vemurafenib": 0.96, "lactate per cell with vemurafenib": 0.73}
{"Gene": "ERMAP", "cell gain with vemurafenib": 0.31, "lactate per cell with vemurafenib": 0.97}
{"Gene": "ACTL7A (actin like 7A)", "cell gain with vemurafenib": "0.28 (active)", "lactate per cell with vemurafenib": 0.3}
{"Gene": "NR0B2 (nuclear receptor subfamily 0 group B member 2)", "cell gain with vemurafenib": 0.7, "lactate per cell with vemurafenib": 0.18}
{"Gene": "ADORA2A (adenosine A2a receptor)", "cell gain with vemurafenib": 0.77, "lactate per cell with vemurafenib": 1.19}
{"Gene": "KRTAP23-1 (keratin associated protein 23-1)", "cell gain with vemurafenib": 0.65, "lactate per cell with vemurafenib": 1.08}
{"Gene": "MYO9B (myosin IXB)", "cell gain with vemurafenib": 0.13, "lactate per cell with vemurafenib": 0.97}
{"Gene": "ASCC1 (activating signal cointegrator 1 complex subunit 1)", "cell gain with vemurafenib": 0.47, "lactate per cell with vemurafenib": 1.06}
{"Gene": "SUMF1 (sulfatase modifying factor 1)", "cell gain with vemurafenib": 0.39, "lactate per cell with vemurafenib": 0.43}
{"Gene": "LTBR (lymphotoxin beta receptor)", "cell gain with vemurafenib": 0.15, "lactate per cell with vemurafenib": 0.63}
{"Gene": "KRR1 (KRR1 small subunit processome component)", "cell gain with vemurafenib": 1.2, "lactate per cell with vemurafenib": 0.64}
{"Gene": "SETD4 (SET domain containing 4)", "cell gain with vemurafenib": 0.28, "lactate per cell with vemurafenib": 0.76}
{"Gene": "NELFB (negative elongation factor complex member B)", "cell gain with vemurafenib": 0.6, "lactate per cell with vemurafenib": 0.6}
{"Gene": "MTMR1 (myotubularin related protein 1)", "cell gain with vemurafenib": 0.86, "lactate per cell with vemurafenib": 1.06}
{"Gene": "HELT (helt bHLH transcription factor)", "cell gain with vemurafenib": 0.5, "lactate per cell with vemurafenib": 1.01}
{"Gene": "RCVRN (recoverin)", "cell gain with vemurafenib": 0.68, "lactate per cell with vemurafenib": 1.08}
{"Gene": "CNEP1R1 (CTD nuclear envelope phosphatase 1 regulatory subunit 1)", "cell gain with vemurafenib": 0.62, "lactate per cell with vemurafenib": 0.52}
{"Gene": "SNORC", "cell gain with vemurafenib": 0.41, "lactate per cell with vemurafenib": 1.54}
{"Gene": "RNF151 (ring finger protein 151)", "cell gain with vemurafenib": 0.58, "lactate per cell with vemurafenib": 0.96}

Part of the list above in another layout:
Gene,cell gain with vemurafenib,lactate per cell with vemurafenib
ACTL7A (actin like 7A),0.28 (active),0.3
NR0B2 (nuclear receptor subfamily 0 group B member 2),0.7,0.18
ADORA2A (adenosine A2a receptor),0.77,1.19
